## Screening data, single-dose tests

Results are given as percent effect. How 0% and 100% were set is not recorded. Most values in the screen are low, and negative values occur. The compounds are a random part of those screened. Two or more numbers in one place are separate tests of the same structure; such repeats can differ widely.

A: 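Growth of Mycobacterium tuberculosis over 3 days (7H9 medium with glucose and tyloxapol); the read-out is not stated. Compounds at 50 µM. Higher reads as more growth inhibition (inferred: compounds with an IC50 in retests scored well above the rest). Size under these conditions: about 69,000 compounds, about 760 of them at 50% or above in at least one test.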
B: 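Whole-cell growth test on Mycobacterium tuberculosis, read after 4 days in a medium based on cholesterol and the lipid DPPC; the read-out is not stated. Concentration: 50 µM. The record gives no direction; compounds that gave an IC50 in retests scored well above the rest, so higher reads as more growth inhibition. Size under these conditions: about 69,000 compounds, about 370 of them at 50% or above in at least one test.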

- CN1CC2(CNCCN(C(=O)Nc3ccccc3)C2)CC1=O.O=C(O)C(F)(F)F (stereo not shown) : A: 11.53%; B: 2.032%
- CC(C)CNC(=O)CNC(=O)NC(c1nccs1)C1CC1 (stereo not shown) : A: 16.26%; B: 23.92%
- Cc1ccc(CNC(=O)C2c3c(ncn3C(C)C)CCN2S(C)(=O)=O)o1 (stereo not shown) : A: -27.25% & 2.394%; B: 9.546%
- Cn1cnc2c1C(COCC1CC1)CN(c1ncccn1)C2.O=C(O)C(F)(F)F.O=C(O)C(F)(F)F (stereo not shown) : A: -8.484%; B: -12.14%
- Cc1ccc(C(=O)N(C)CCOc2ccccc2F)c(=O)[nH]1 : A: 4.385%; B: 9.043%
- O=C(O)C(F)(F)F.[H][C@@]12CN(Cc3cccc(C)n3)C[C@]1([H])C(=O)N(CCOC)C2 : A: -10.43%; B: -19.08%
- Cc1nn(C)c(N2CCOCC2)c1CNC1CCCCNC1=O (stereo not shown) : A: 18.62%; B: 28.77%
- CCCc1c(C(=O)N2CCN(c3ncccn3)CC2)cnn1C : A: -23% & -5.01%; B: -18.21%
- [H][C@@]12CCCO[C@]1([H])[C@H](N(CC)CC)CN2S(=O)(=O)c1cn(C)cn1 : A: -38.16%; B: 16.67%
- CCN(CC)C(=O)C1CCC(=O)N(CCc2cccc(F)c2)C1 (stereo not shown) : A: -6.093%; B: -21.48%
- O=C(O)C1(Cc2cccc(Cl)c2)CCCN(c2ncnc3[nH]ccc23)C1 (stereo not shown) : A: -6.857%; B: -3.817%
- CCS(=O)(=O)N1CC(c2nc(-c3ccncc3)no2)C1 : A: -26.34%; B: 5.294%
- COCCn1c2c(ccc1=O)CCN(C(=O)C1CC=CC1)CC2 : A: 18.52%; B: 11.81%
- CC(NCc1ccnc(OC2CCC2)c1)c1cnn(C)c1 (stereo not shown) : A: 3.385%; B: -4.34%
- CN(C)c1ncccc1C(=O)N1CCN(C2=NCC(C)(C)S2)CC1 : A: -27.56%; B: -10.43%
- CCOCCN1CCN(CC(O)c2cc(Cl)ccc2Cl)CC1 (stereo not shown) : A: 29.37%; B: -11.57%
- O=C(O)C(F)(F)F.O=S(=O)(c1cccs1)N1CCCn2nnc(CN3CCCCC3)c2C1 : A: -4.842%; B: 6.112%
- CS(=O)(=O)N1CCOC2(CCN(c3ncccn3)CC2)c2ccccc21 : A: 8.295% & 3.665%; B: 19.61%
- Cc1nn(C)c2c(=O)n(Cc3ccc(Cl)cc3)nnc12 : A: 11.07%; B: -15.08%
- O=C(C1CC1)N1CCC2(CC1)COCCN2Cc1ccc(F)cc1.O=C(O)C(F)(F)F : A: 8.146%; B: -19.04%
- Cc1ccc(NC(=O)N2CCC3(CCC(C(=O)N(C)C)O3)CC2)cc1 (stereo not shown) : A: 5.002%; B: -7.026%
- CC(C)C(=O)N1CCCC([C@@H]2C[C@H](C(F)F)n3ncnc3N2)C1 (stereo partly shown) : A: -1.793%; B: 4.893% & -3.667%
- Cc1cc(N2CCC(N(C)C(=O)Nc3ccccc3)CC2)nc(C)n1 : A: -5.078% & -5.608%; B: 4.508%
- c1cnc(N2CCN(Cc3nnnn3C3CC3)CC2)nc1 : A: -0.09652% & 7.066%; B: -4.008%
- O=C(O)C(F)(F)F.[H][C@]12CCN(C(=O)COC)[C@@]1([H])CC[C@@H](COCc1ccncc1)O2 : A: -11.74%; B: -14.03%
- CC(=O)N1CCC2(CC1)CC(N1CCOCC1)c1ccc(C)cc12.O=C(O)C(F)(F)F (stereo not shown) : A: -8.553%; B: 7.776%

Data taken from ChEMBL document CHEMBL3988442, “University of Dundee, Small-Polar-MMV Screening Library” (2021).